Laboratory results published in publication PMC5346697.
No constants are given. Whether binding was seen depends on the method and setting. In cells and extracts the contact can be indirect. Some binding calls cover weakened binding; strength is not graded here.

Chains of the proteins cited; added tags and fusions are not shown. Residues count along the entry.
UniProt Q13233: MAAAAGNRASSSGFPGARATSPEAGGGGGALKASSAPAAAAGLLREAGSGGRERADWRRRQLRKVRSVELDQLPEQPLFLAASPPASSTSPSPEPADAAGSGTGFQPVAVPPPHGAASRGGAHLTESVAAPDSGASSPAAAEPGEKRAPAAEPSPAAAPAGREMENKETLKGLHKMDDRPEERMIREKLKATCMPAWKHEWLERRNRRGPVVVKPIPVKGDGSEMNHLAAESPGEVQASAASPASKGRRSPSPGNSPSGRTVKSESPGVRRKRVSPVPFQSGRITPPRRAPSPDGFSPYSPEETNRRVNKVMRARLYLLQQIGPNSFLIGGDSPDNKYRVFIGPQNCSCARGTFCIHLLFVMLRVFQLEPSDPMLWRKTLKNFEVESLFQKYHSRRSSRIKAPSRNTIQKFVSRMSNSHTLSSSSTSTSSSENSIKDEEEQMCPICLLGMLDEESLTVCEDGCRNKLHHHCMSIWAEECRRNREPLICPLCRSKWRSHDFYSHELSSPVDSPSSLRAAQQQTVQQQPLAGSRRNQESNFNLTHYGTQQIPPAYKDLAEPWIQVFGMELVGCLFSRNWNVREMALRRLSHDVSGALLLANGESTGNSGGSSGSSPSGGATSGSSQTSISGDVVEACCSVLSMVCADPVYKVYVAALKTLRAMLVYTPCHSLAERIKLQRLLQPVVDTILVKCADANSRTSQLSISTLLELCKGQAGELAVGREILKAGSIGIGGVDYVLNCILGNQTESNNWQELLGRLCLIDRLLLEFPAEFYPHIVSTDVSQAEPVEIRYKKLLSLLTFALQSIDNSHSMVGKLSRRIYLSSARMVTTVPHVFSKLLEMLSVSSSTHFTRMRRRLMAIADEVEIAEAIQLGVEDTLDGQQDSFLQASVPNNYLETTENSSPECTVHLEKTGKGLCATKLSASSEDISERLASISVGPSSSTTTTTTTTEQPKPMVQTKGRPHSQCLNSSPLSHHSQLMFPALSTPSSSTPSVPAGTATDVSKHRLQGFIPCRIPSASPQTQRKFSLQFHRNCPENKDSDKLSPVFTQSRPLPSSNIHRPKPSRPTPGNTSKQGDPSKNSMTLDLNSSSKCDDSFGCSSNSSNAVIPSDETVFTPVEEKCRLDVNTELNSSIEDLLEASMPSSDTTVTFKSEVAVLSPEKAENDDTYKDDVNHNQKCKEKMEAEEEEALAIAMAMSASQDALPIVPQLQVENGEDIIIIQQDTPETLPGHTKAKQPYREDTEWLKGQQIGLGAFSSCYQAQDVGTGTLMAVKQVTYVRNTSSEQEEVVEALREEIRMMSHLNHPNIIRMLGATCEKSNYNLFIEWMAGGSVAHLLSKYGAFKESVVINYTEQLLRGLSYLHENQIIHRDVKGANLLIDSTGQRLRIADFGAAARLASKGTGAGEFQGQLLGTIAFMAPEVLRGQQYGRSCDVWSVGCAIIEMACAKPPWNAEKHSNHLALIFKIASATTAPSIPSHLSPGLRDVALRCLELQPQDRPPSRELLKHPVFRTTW
UniProt P46531, residues 1754-2555: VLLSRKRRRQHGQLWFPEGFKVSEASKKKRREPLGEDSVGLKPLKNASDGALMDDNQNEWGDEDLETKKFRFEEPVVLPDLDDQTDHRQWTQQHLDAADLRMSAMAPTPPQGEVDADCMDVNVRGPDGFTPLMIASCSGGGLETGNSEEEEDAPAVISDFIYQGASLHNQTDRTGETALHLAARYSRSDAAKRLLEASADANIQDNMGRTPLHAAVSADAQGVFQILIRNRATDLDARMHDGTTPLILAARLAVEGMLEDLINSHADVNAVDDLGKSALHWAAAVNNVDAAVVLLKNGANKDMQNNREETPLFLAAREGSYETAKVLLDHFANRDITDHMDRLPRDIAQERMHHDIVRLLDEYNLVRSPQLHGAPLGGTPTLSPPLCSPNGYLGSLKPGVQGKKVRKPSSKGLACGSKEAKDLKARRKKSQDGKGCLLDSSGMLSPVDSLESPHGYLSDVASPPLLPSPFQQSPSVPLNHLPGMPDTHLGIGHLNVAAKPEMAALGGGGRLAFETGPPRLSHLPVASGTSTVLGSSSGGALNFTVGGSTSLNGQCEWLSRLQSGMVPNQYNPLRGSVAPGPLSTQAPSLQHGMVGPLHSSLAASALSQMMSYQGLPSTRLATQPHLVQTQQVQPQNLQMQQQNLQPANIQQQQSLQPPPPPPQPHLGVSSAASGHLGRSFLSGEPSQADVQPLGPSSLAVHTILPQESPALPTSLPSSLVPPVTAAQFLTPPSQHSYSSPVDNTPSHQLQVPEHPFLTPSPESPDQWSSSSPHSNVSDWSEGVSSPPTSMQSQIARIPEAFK

Legend:
[1] = target: p62/SQSTM1 (endogenous) (human (endogenous in HEK293)) (UniProt Q13501); test: co-IP; endogenous proteins of HEK293 cells with Fbw7 knockdown (shFbw7), BFA1, nutrient-rich or nutrient-deprivation; precipitated with anti-p62, blotted with anti-Notch1
[2] = target: p62/SQSTM1 (endogenous) (human (endogenous in HEK293)) (UniProt Q13501); test: condition: only in cells with His-Ub-7KR (no polyubiquitin chains); co-IP; endogenous proteins of HEK293 cells with His-Ub-7KR (all seven lysines of ubiquitin to arginine), BFA1, nutrient-rich or nutrient-deprivation; precipitated with anti-p62, blotted with anti-Notch1
[3] = target: MEKK1 (endogenous) (human (endogenous in HEK293)) (UniProt Q13233); test: co-IP; endogenous proteins of HEK293 cells cultured with BFA1 under nutrient-rich or nutrient-deprivation conditions (also shCon, shp62 or His-Ub cells); precipitated with anti-LC3, anti-p62 or anti-MEKK1 (IgG control), blotted with anti-Notch1; lysis in 20 mM Tris-HCl pH 7.4, 2 mM EDTA, 25 mM NaF, 1% Triton X-100; Protein A agarose, 4°C
[4] = target: p62/SQSTM1 (endogenous) (human (endogenous in HEK293)) (UniProt Q13501); test: as above

- binding [2]: no binding
- binding [3]: binds
- binding [4]: binds
Substance: Notch1 intracellular domain (endogenous) (from UniProt P46531 1754-2555) (domain or fragment)
- binding [1]: no binding (condition: with Fbw7 knockdown (shFbw7))
